{"sequences": {"note": "Chains of the proteins cited; added tags and fusions are not shown. Lines headed by an entry give the natural chain unless they say otherwise; changes in a name come on top.", "UniProt O00161": "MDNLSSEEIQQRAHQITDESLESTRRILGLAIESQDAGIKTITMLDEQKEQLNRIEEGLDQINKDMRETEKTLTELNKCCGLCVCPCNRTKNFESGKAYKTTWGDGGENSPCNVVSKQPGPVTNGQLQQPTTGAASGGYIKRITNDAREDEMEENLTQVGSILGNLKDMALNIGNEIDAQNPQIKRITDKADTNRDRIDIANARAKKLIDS", "UniProt O00458": "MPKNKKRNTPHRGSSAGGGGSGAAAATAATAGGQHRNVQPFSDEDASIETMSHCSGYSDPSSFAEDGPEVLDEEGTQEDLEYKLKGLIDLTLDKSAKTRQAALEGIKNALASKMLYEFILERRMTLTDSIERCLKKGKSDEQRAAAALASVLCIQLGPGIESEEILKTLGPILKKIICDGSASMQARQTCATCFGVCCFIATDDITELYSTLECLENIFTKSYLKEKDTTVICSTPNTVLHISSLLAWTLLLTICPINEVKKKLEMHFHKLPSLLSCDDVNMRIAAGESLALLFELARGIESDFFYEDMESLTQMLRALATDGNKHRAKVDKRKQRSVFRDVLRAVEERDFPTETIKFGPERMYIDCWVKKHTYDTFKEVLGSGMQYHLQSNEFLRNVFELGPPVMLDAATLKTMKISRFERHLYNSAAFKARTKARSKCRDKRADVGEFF", "UniProt O15372, whole entry": "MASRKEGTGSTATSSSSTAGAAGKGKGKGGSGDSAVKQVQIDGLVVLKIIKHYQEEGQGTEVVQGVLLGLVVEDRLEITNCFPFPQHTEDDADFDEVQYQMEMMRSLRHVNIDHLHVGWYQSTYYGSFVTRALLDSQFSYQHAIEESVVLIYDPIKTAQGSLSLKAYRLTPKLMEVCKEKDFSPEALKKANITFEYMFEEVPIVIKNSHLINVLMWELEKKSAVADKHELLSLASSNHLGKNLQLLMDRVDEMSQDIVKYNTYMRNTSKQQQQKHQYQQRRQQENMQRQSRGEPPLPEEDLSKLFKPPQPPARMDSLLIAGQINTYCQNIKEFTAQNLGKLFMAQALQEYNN", "UniProt O15027": "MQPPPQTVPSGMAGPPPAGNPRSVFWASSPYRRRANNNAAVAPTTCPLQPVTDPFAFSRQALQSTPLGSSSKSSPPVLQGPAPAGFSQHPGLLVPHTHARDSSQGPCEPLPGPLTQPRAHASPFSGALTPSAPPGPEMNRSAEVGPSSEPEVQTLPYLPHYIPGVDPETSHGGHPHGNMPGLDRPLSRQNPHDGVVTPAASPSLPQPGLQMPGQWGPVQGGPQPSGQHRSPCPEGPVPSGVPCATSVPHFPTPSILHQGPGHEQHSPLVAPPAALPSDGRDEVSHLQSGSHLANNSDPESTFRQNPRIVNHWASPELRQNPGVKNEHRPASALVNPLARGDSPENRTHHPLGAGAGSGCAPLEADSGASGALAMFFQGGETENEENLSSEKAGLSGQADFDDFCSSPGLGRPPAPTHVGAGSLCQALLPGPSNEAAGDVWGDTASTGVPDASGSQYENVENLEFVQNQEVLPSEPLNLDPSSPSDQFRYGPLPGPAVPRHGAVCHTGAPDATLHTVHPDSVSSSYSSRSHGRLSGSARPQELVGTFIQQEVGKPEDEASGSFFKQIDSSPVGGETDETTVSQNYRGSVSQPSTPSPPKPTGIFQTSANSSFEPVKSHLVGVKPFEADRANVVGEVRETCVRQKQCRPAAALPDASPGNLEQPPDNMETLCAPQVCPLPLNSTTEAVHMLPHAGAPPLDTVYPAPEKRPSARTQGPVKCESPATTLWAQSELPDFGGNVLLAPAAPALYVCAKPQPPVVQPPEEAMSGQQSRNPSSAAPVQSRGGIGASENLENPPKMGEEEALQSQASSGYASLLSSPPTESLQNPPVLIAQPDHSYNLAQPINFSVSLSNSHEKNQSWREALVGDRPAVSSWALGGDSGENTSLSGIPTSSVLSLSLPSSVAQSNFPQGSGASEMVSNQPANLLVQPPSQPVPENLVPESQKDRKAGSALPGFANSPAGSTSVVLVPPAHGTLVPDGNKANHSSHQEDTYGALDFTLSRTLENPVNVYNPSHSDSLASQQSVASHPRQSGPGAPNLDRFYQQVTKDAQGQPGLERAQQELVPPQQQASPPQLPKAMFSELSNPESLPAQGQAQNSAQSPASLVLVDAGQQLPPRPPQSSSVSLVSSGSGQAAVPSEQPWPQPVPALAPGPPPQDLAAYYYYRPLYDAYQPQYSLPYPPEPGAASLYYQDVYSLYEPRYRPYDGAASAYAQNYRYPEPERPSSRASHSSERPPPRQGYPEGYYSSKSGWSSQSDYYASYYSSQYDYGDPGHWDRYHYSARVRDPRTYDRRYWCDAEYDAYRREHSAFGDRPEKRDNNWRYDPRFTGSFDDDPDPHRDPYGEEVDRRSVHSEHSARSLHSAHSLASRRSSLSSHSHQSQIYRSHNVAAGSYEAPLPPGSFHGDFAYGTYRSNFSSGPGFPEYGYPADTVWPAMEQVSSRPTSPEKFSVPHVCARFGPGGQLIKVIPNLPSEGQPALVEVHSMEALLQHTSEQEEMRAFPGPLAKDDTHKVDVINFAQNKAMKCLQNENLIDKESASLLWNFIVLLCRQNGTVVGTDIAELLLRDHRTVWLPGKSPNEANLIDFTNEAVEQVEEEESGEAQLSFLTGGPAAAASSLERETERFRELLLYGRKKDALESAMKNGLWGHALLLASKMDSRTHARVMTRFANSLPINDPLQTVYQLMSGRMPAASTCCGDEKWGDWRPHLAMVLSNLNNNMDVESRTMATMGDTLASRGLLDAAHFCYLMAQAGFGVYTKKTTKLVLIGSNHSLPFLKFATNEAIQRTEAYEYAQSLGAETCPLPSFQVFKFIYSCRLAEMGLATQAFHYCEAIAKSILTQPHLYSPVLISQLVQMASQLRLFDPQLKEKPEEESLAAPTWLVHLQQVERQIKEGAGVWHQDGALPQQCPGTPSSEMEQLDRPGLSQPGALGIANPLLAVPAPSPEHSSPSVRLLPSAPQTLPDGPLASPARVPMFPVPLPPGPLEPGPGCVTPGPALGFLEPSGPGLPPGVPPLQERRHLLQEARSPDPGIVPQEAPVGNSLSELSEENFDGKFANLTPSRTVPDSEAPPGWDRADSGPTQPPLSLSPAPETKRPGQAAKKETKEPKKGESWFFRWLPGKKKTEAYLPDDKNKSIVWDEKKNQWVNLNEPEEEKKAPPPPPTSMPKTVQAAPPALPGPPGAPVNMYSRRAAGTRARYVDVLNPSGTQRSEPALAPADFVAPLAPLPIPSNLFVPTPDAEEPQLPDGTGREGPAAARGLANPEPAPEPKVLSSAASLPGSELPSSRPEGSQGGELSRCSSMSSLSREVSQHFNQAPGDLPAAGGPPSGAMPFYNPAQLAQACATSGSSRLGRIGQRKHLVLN", "UniProt O00399, whole entry": "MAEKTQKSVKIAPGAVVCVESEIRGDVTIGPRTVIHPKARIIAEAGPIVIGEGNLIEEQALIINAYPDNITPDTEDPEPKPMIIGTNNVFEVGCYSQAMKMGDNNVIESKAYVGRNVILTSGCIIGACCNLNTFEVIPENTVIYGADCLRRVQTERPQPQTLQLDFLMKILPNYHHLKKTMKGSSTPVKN", "UniProt B2RPK0": "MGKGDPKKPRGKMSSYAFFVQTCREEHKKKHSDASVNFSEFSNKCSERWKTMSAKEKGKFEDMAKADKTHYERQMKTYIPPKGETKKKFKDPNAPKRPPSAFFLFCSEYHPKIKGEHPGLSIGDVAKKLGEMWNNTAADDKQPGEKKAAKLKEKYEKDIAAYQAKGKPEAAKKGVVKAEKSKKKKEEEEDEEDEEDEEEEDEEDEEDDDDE", "UniProt O00470": "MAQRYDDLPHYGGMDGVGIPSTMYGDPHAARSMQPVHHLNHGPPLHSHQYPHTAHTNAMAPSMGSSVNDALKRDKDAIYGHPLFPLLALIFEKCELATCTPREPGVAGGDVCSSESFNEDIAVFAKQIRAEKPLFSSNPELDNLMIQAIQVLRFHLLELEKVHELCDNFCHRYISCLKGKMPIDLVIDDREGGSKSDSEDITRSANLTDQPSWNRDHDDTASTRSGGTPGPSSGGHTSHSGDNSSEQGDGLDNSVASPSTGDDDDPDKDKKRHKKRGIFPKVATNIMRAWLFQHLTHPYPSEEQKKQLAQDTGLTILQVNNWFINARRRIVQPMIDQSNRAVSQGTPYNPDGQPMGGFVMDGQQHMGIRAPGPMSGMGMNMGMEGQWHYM", "UniProt O00148, whole entry": "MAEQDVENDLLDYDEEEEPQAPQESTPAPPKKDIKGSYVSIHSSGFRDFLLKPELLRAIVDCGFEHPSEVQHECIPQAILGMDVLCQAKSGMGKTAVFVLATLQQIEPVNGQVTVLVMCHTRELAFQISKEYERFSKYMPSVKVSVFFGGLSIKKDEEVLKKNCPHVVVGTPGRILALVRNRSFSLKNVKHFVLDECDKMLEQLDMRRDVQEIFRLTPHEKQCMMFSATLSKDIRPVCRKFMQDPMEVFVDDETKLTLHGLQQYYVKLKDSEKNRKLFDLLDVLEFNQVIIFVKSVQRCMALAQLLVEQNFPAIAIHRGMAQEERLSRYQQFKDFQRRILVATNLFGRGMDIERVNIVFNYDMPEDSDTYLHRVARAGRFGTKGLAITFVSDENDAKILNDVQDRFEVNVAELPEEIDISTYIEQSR", "UniProt O14787": "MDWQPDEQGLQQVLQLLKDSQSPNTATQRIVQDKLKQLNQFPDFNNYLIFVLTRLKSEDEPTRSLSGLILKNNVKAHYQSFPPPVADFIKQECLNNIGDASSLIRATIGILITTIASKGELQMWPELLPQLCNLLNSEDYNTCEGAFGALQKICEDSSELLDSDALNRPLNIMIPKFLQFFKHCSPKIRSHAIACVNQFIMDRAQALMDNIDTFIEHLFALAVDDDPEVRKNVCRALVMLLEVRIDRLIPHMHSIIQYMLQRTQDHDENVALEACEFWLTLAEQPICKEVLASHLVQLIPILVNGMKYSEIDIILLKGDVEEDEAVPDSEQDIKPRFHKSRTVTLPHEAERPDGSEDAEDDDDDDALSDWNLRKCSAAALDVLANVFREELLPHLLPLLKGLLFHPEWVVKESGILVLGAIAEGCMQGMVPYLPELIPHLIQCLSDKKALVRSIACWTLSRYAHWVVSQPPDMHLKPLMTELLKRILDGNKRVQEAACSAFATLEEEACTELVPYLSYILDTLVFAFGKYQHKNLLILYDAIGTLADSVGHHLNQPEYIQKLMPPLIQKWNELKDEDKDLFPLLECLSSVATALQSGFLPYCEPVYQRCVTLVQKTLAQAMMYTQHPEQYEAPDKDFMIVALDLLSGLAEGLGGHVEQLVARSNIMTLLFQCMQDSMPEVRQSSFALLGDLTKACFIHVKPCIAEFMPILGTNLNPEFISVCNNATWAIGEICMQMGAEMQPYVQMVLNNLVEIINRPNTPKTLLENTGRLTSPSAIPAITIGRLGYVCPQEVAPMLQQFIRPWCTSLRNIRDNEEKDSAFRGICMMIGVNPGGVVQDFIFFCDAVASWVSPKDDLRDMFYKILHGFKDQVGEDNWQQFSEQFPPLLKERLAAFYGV", "UniProt A6NHL2": "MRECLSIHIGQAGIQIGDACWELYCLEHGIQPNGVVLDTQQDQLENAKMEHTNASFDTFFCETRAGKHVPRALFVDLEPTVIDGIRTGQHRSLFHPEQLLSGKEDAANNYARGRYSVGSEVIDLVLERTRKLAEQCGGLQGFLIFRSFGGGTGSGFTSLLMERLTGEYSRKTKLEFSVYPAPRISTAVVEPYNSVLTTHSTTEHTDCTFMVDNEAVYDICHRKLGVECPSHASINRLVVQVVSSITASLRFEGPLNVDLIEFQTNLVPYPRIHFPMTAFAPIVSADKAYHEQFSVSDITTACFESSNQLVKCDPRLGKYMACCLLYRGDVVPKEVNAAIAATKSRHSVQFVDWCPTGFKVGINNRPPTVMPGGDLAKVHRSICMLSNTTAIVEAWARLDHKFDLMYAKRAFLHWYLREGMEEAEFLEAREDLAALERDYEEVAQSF", "UniProt O14628": "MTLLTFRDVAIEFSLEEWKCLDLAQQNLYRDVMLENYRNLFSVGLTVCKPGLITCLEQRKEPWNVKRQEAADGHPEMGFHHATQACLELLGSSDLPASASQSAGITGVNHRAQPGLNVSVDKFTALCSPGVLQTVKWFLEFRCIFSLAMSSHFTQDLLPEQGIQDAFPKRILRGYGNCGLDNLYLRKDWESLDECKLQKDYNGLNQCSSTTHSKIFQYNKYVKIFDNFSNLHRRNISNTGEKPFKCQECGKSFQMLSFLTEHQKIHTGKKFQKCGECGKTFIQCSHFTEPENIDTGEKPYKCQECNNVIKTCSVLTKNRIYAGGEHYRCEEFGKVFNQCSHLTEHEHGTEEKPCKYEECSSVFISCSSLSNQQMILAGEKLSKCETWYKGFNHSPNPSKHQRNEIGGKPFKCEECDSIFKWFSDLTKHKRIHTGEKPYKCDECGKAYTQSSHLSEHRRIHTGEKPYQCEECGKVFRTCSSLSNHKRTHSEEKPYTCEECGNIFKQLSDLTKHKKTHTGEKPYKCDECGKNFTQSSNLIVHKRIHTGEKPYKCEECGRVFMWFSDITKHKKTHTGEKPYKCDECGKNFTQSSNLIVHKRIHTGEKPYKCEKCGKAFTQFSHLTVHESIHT"}, "source": "the supplement of paper PMC12819154", "about": "“High-throughput peptide-centric local stability assay extends protein–ligand identification to membrane proteins, tissues and bacteria” (Nature Structural & Molecular Biology, 2025)", "note": "Some of the results follow. Most entries show no effect beyond the scatter of the controls.", "data": [{"compound": "CN[C@@H]1C[C@H]2O[C@@](C)([C@@H]1OC)n1c3ccccc3c3c4c(c5c6ccccc6n2c5c31)C(=O)NC4 [staurosporine]", "assay": "log2 fold change of tryptic peptide abundance, ligand vs vehicle (limited proteolysis) (log2 ratio); higher = more trypsin-susceptible (destabilized)", "settings": "ligand concentration: 20 uM; sample: K562 cleared lysate; digestion: 4 min, 22 C (HT-PELSA RT4min, Orbitrap Astral)", "values": [{"target": "FBLL1 (peptide sequence: IVALNAHTFLR, peptide start residue: 245) (UniProt A6NHQ2)", "log2 fold change": 0.0273}, {"target": "SNAP23 (peptide sequence: AHQITDESLESTR, peptide start residue: 13) (UniProt O00161)", "log2 fold change": -0.111}, {"target": "UniProt O00472 (peptide sequence: STPMNPANTIR, peptide start residue: 183)", "log2 fold change": 0.266}, {"target": "MYO1C (peptide sequence: VNSININQGSITFAGGPGR, peptide start residue: 1013) (UniProt O00159)", "log2 fold change": -0.266}, {"target": "ACACB (peptide sequence: TVVLDLLR, peptide start residue: 1128) (UniProt O00763)", "log2 fold change": 0.505}, {"target": "UniProt O15091 (peptide sequence: SRPPFDVVIDGLNVAK, peptide start residue: 400)", "log2 fold change": 0.187}, {"target": "IFRD1 (peptide sequence: KHTYDTFK, peptide start residue: 371) (UniProt O00458)", "log2 fold change": -0.356}, {"target": "SAP18 (peptide sequence: VKEIGSTMSGR, peptide start residue: 103) (UniProt O00422)", "log2 fold change": 0.115}, {"target": "EIF3H (peptide sequence: EKDFSPEALKK, peptide start residue: 179) (UniProt O15372)", "log2 fold change": 0.25}, {"target": "SCAMP2 (peptide sequence: QQEELDRK, peptide start residue: 88) (UniProt O15127)", "log2 fold change": 0.315}, {"target": "PIK3C2A (peptide sequence: IKEVSVFTYHK, peptide start residue: 1424) (UniProt O00443)", "log2 fold change": 0.528}, {"target": "KIF3B (peptide sequence: ERPDTGVYVK, peptide start residue: 168) (UniProt O15066)", "log2 fold change": -0.556}, {"target": "SEC16A (peptide sequence: EHSAFGDRPEK, peptide start residue: 1303) (UniProt O15027)", "log2 fold change": 0.618}, {"target": "DCTN6 (peptide sequence: ILPNYHHLK, peptide start residue: 170) (UniProt O00399)", "log2 fold change": 0.199}, {"target": "UniProt B2RPK0 (peptide sequence: WKTMSAKEK, peptide start residue: 49)", "log2 fold change": 0.303}, {"target": "HMGB3 (peptide sequence: EKSKFDEMAK, peptide start residue: 56) (UniProt O15347)", "log2 fold change": -0.477}, {"target": "RGL2 (peptide sequence: QYRPLDPLVPMPPPR, peptide start residue: 73) (UniProt O15211)", "log2 fold change": 0.269}, {"target": "MEIS1 (peptide sequence: DHDDTASTR, peptide start residue: 216) (UniProt O00470)", "log2 fold change": -0.834}, {"target": "UniProt O00148 (peptide sequence: HFVLDECDK, peptide start residue: 191)", "log2 fold change": 0.139}, {"target": "UniProt A6NI28 (peptide sequence: GITILGLYR, peptide start residue: 409)", "log2 fold change": -0.0774}, {"target": "SLC9A3R1 (peptide sequence: LLVVDRETDEFFK, peptide start residue: 228) (UniProt O14745)", "log2 fold change": 0.309}, {"target": "ZNF724 (peptide sequence: AFNVSSTLSQHK, peptide start residue: 206) (UniProt A8MTY0)", "log2 fold change": -0.575}, {"target": "TNPO2 (peptide sequence: NIRDNEEKDSAFR, peptide start residue: 811) (UniProt O14787)", "log2 fold change": 0.323}, {"target": "CPLX1 (peptide sequence: YLPGPLQDMLKK, peptide start residue: 123) (UniProt O14810)", "log2 fold change": 0.131}, {"target": "TUBAL3 (peptide sequence: GRYSVGSEVIDLVLER, peptide start residue: 113) (UniProt A6NHL2)", "log2 fold change": 0.473}, {"target": "UniProt O14628 (peptide sequence: CQECNNVIK, peptide start residue: 302)", "log2 fold change": 0.489}, {"target": "ESPN (peptide sequence: ALEQALQAAR, peptide start residue: 2) (UniProt B1AK53)", "log2 fold change": 0.36}, {"target": "UniProt D6RIA3 (peptide sequence: KMQREHEFK, peptide start residue: 820)", "log2 fold change": 0.202}, {"target": "MYO1F (peptide sequence: GFGDLAVLK, peptide start residue: 897) (UniProt O00160)", "log2 fold change": -0.499}]}]}
